# Source: publication PMC9574515
# Chains of the proteins cited; added tags and fusions are not shown.
# UniProt Q9UNE7: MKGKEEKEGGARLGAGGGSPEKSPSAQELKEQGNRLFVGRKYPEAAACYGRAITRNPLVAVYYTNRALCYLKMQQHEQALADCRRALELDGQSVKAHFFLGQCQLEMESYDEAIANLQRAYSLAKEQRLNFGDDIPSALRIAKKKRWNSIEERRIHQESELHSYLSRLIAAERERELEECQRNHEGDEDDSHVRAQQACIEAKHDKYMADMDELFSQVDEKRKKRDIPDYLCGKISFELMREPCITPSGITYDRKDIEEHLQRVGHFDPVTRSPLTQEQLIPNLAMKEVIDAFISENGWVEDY
# UniProt Q9UKJ5: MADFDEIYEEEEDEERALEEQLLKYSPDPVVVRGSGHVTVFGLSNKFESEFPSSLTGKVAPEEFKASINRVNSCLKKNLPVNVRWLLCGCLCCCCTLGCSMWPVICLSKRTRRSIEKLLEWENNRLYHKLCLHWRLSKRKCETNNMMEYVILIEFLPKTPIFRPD
# UniProt Q64433: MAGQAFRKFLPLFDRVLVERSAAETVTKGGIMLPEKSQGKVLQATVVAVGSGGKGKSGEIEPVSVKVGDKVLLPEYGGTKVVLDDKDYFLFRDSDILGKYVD
# UniProt Q9D9G3: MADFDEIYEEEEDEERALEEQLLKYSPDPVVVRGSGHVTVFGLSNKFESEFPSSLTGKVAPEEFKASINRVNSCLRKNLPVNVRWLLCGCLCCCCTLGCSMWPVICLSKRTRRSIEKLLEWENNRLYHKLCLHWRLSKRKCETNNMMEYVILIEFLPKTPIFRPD
# UniProt Q9WUD1: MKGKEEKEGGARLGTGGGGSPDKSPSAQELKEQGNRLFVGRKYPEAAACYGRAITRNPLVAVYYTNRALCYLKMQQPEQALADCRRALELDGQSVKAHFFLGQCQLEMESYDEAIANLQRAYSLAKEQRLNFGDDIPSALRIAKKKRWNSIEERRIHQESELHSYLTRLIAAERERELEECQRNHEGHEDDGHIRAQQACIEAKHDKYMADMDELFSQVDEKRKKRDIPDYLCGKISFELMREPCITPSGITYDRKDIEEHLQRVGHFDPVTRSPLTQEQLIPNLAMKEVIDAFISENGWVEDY
# These are yes or no findings as the source states them, for the method shown. Binding seen in cells or lysates may run through a third protein. Here binding means that the protein was enriched with, or labelled near, the bait; the list need not be complete. For some of these results: No binding means not detected with the bait.
# Tests used:
# [1] = target: STUB1-V5 (human (from the RefSeq entry NM_005861.3 and the capital gene symbol)) (UniProt Q9UNE7); assay: affinity purification with mass spectrometry; anti-V5 IP of overexpressed V5-tagged STUB1 or CHIC2 from 32D cell lysates (NP40 lysis buffer), compared to Luciferase control IP, n = 4 replicates, LC-MS
# [2] = target: STUB1-V5 (human (from the RefSeq entry NM_005861.3 and the capital gene symbol)) (UniProt Q9UNE7); assay: affinity purification with mass spectrometry; STUB1 IP in Chic2 KO 32D cells compared to STUB1 IP in Chic2 WT 32D cells, n = 4 replicates
# [3] = target: V5-CHIC2 (human (from the RefSeq entry NM_012110.3 and the capital gene symbol)) (UniProt Q9UKJ5); assay: affinity purification with mass spectrometry; anti-V5 IP of overexpressed V5-tagged STUB1 or CHIC2 from 32D cell lysates (NP40 lysis buffer), compared to Luciferase control IP, n = 4 replicates, LC-MS
# [4] = target: V5-CHIC2 (human (from the RefSeq entry NM_012110.3 and the capital gene symbol)) (UniProt Q9UKJ5); assay: affinity purification with mass spectrometry; CHIC2 IP in Stub1 KO 32D cells compared to CHIC2 IP in Stub1 WT 32D cells, n = 4 replicates
Molecule,binding [1],binding [2],binding [3],binding [4]
Hspe1 (from UniProt Q64433 1-102),binds,no binding (only in Chic2 KO 32D cells),–,–
"Fcgr1 (receptor, UniProt P26151 25-404) EVVNATKAVITLQPPWVSIFQKENVTLWCEGPHLPGDSSTQWFINGTAVQISTPSYSIPEASFQDSGEYRCQIGSSMPSDPVQLQIHNDWLLLQASRRVLTEGEPLALRCHGWKNKLVYNVVFYRNGKSFQFSSDSEVAILKTNLSHSGIYHCSGTGRHRYTSAGVSITVKELFTTPVLRASVSSPFPEGSLVTLNCETNLLLQRPGLQLHFSFYVGSKILEYRNTSSEYHIARAEREDAGFYWCEVATEDSSVLKRSPELELQVLGPQSSAPVWFHILFYLSVGIMFSLNTVLYVKIHRLQREKKYNLEVPLVSEQGKKANSFQQVRSDGVYEEVTATASQTTPKEAPDGPRSSVGDCGPEQPEPLPPSDSTGAQTSQS",–,–,binds,no binding (only in Stub1 KO 32D cells)
"Ifitm2 (protein, UniProt Q99J93 1-144) MSHNSQAFLSTNAGLPPSYETIKEEYGVTELGEPSNSAVVRTTVINMPREVSVPDHVVWSLFNTLFFNACCLGFVAYAYSVKSRDRKMVGDVVGAQAYASTAKCLNISSLIFSILMVIICIIIFSTTSVVVFQSFAQRTPHSGF",–,–,binds,–

# The remaining lines, values ahead:
binding [1],binding [2],binding [3],binding [4],Molecule
binds,–,–,–,endogenous Chic2 (from UniProt Q9D9G3 1-165)
–,–,binds,–,endogenous Stub1 (from UniProt Q9WUD1 1-304) (enzyme)
–,–,binds,–,"Itm2b (protein, UniProt O89051 1-266) MVKVTFNSALAQKEAKKDEPKSSEEALIVPPDAVAVDCKDPGDVVPVGQRRAWCWCMCFGLAFMLAGVILGGAYLYKYFALQPDDVYYCGLKYIKDDVILNEPSADAPAARYQTIEENIKIFEEDAVEFISVPVPEFADSDPANIVHDFNKKLTAYLDLNLDKCYVIPLNTSIVMPPKNLLELLINIKAGTYLPQSYLIHEHMVITDRIENVDNLGFFIYRLCHDKETYKLQRRETIRGIQKREASNCFTIRHFENKFAVETLICS"
binds,no binding (only in Chic2 KO 32D cells),–,–,"Lmnb1 (protein, UniProt P14733 1-588) MATATPVQQQRAGSRASAPATPLSPTRLSRLQEKEELRELNDRLAVYIDKVRSLETENSALQLQVTEREEVRGRELTGLKALYETELADARRALDDTARERAKLQIELGKFKAEHDQLLLNYAKKESDLSGAQIKLREYEAALNSKDAALATALGDKKSLEGDLEDLKDQIAQLEASLSAAKKQLADETLLKVDLENRCQSLTEDLEFRKNMYEEEINETRRKHETRLVEVDSGRQIEYEYKLAQALHEMREQHDAQVRLYKEELEQTYHAKLENARLSSEMNTSTVNSAREELMESRMRIESLSSQLSNLQKESRACLERIQELEDMLAKERDNSRRMLSDREREMAEIRDQMQQQLSDYEQLLDVKLALDMEISAYRKLLEGEEERLKLSPSPSSRVTVSRASSSRSVRTTRGKRKRVDVEESEASSSVSISHSASATGNVCIEEIDVDGKFIRLKNTSEQDQPMGGWEMIRKIGDTSVSYKYTSRYVLKAGQTVTVWAANAGVTASPPTDLIWKNQNSWGTGEDVKVILKNSQGEEVAQRSTVFKTTIPEEEEEEEEEPIGVAVEEERFHQQGAPRASNKSCAIM"
